# Data as given in PubChem BioAssay AID720703 (Peter MacCallum Cancer Centre, 2013)
# Assay: 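Kinase knock-down screen for links between AT1R and EGFR signalling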 (primary screen)
# Cell system: immortalised, SV40-transformed mammary epithelial cells from human, with stable expression of tagged AT1R
# Reagent: siRNA pool against human genes, 40 nM siRNA pool per well
# Timing: 72 h from transfection to lysis and read-out
# Conditions: angiotensin II stimulation (dose and duration not given); EGFR inhibitor AG1478 also listed
# Measurement: 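AlphaScreen bead assay of phosphorylated ERK1/2 in cell lysates, corrected for well confluency, converted to robust z-scores and averaged across two technical replicate plates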
# Scale: phospho-ERK z-score: higher = more ERK phosphorylation after angiotensin II, relative to plate
# Hit rule: 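Pools were ordered by robust z-score and 50 top-ranked pools, whether they raised or lowered the signal, were chosen for secondary testing; no numeric threshold was reported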
# Meaning of the calls: active = picked for secondary screen; inactive = not picked
# This is one part, drawn at random, of 714 reagents. Of all reagents, 50 (7%) were called active. 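Chosen pools sit at both extremes, so both low and high scores count as candidates; some pools appear more than once.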 A number with no mark means an inactive call.
gene,"phospho-ERK z-score, replicate mean"
NRBP1,-0.5
PRP4K,0.13
NTRK2,0.14
TGFBR1,-0.14
PINK1,-0.3
STK17A,-0.32
PRKAB2,2.44
CAMK1D,1.58
ERBB3,-0.34
UCK1,0.16
MAPK14,-0.11
CSNK1A1,-1
CDK3,-1.03
SGK1,-0.34
EPHA4,0.14
ACVR1C,-0.86
GK,0.48
PRKCI,-1.11 (active)
PRKCD,-1.21 (active)
CDK13,-0.91
TEX14,-0.48
ITK,70.3
LCK,-0.38
STK39,0.06
PRKAG1,-0.23
LRRK1,-0.76
TNNI3K,0.08
CDK8,1.14
FGR,-0.2
DGKQ,-0.74
IPMK,1.12
PSKH2,3.75 (active)
CDK5R1,-1.5 (active)
FGFRL1,-0.55
AK4,-1.03
CDK17,0.03
MAPK3,1.95
PTK6,-0.05
SHPK,-0.92
SRPK2,-0.5
PFKFB2,-0.04
MAPKAPK2,0.04
AMHR2,0.46
MAST1,1.5
ADCK2,-0.76
ITPKB,0.16
TBCK,0.87
MAP3K9,1.38
MYO3B,2.36
ERN2,-0.42
PAPSS1,0.46
DCLK2,1.64
DYRK1A,-1.02 (active)
STK33,-1.06
BLK,0.4
MYLK,0.13
TWF2,1.76
PRKD1,-0.84
CDK16,-0.34
N4BP2,0.01
HSPB8,1.01
GOLGA5,0.1
KCNH2,-0.94
RPS6KA6,0.03
FYN,0.05
EFNA4,-0.08
CDC42BPA,1.46
EEF2K,-0.98
MKNK2,-0.24
TRPM7,-0.78
STK24,0.26
AGK,-1.38 (active)
KSR2,0.74
HUS1,0.82
MAP3K4,0.32

Laid out differently: entries from further up.
PRKAG1 — phospho-ERK z-score, replicate mean = -0.23
LRRK1 — phospho-ERK z-score, replicate mean = -0.76
TNNI3K — phospho-ERK z-score, replicate mean = 0.08
CDK8 — phospho-ERK z-score, replicate mean = 1.14
